According to PubChem BioAssay AID1508600 (Functional Genomics Laboratory (NCATS/FGL), 2020):
The campaign covered roughly 53,000 sequences. About 3,700 (7%) were called active.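 How the source made its calls: active means gene knockdowns whose robust z-score for IL-1 alpha signal is at least 2 or at most -2, so actives lie on both sides; inactive means the rest.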 Some of the results follow.

Assay: Components of the Cytosolic LPS Sensing Pathway: Gene Identification via Genome-wide siRNA Screen;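 further: robust z of the log signal after scaling to non-targeting control siRNA wells of the plate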
Conditions: RAW264.7 macrophages, IL-1a HTRF, actives lie on both sides, screened at 100 nM (by protocol), cells primed 5 h with Pam3CSK4 first
Outline: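 Using IL-1a HTRF as read-out, the screen measured release from RAW264.7 cells after 48h siRNA knockdown (100 nM), 5 h Pam3CSK4 priming and 24 h cytosolic LipidA. Values were expressed relative to negative-control wells as robust z-scores.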

z-score, active:
GCCAAUGAACCGAUCUCUGTT against Ep400 -2.13, GGAACUAGUUUUUAUACUCTT against Igfbp1 2.23, GGAAAUCCAUCGUUAUUCUTT against Abca8a 2.08, GGUUCACAGUAACCAUUGGTT against Zc3h18 -2.45, GGAGUUUUGUGAACUAUGATT against Slc36a3 -2.73, GGUGAGGUAGGUUACUCAGTT against Reps1 -2.16

z-score, inactive:
GGUAGAAUUCAAUGUAUCATT against Arhgap17 -0.615, GCUGAUCAGCAUUAUUCACTT against Esyt1 0.318, GCCAACCUUAGGAGACAUCTT against Zfp40 -0.553, CGAAAAGGUGGACUUUUAGTT against Rnf4 -0.545, GGUCAGACUUGAUUAUUUGTT against F830104G03Rik -0.361, GGCCAUGGAAAAAUCUCAGTT against Dtna 0.557, GGCAUCAAUAGGAAGAUGCTT against Rgs19 0.182, GGGCACAGGAUGAAAUGCATT against Ccdc150 -0.944, GGGAAAAGAUGUUUCUAUCTT against Ifi44 1.05, GGUGGUUUUUUGUUGUUGUTT against Lhfpl4 0.277, GGCUCCAAAGUUUGUGCUGTT against Grin3b 1.36, GGAGACUGUCUAAUAAAAATT against Medag 0.0572, GGAUAUCAAGGGAUCAGACTT against Chchd4 0.00163, GGAUGUUUGCUAGCUUCCCTT against Hba-a1 0.0494, GCUCAGCUUAUGACCACGUTT against Mapk3 1.5, GCUUGGAGUCGUAGUUUCUTT against Cass4 -1.67, GGAGUUGUCUGUCUUUAAGTT against Inpp5a -0.449, GGACAGCGACAAGAUUCCGTT against Sox4 -0.714, GGCCGAGGAUGAAAUUGAGTT against Stk25 -0.239, GGUGGUCUACAGAAAAUUCTT against Ncf1 -0.908, GGAGACUAUUUCAUCUACUTT against Tnfsf15 0.347, GCUCAUUCACACUUAAUCATT against Dock11 -0.737, GGAAAUGAAGACAUACCUGTT against Olfr175 0.741, GCGAGUUUGUGCUACAAAATT against Htr7 1.3, CCAGGUCUAUUUUGCCAUUTT against Dnmbp 1.32, GCACAUCGCAUUACUAACATT against Pabpc2 1.31, GGACCACCAUUCCAUCAGATT against Sema3d -0.174, GCAGCACCUUUGUGGUUCCTT against Ins2 -1.1, GGGCUUUGGAUGAACUGCATT against Cldn17 -0.0702, GCAGUCAUAACAGAGCAUCTT against Gtf2h3 0.931, GGGAUUGCAUGGUUAAACUTT against Nfam1 -0.901, GGUCAUUUGUUGUAUGUAGTT against Cdr1os -1.61, GCCUCAGGAAGCAGAAUGATT against Krt78 -0.196, GCUACUAAAGGUUUUAGGATT against Rps6ka2 -0.335, CCUUGGACUUGAGUUCCAATT against Ssu2 1.58, CCCAACUGUUCAGAAAAUATT against Olfr1212 -0.00602, GCGAUCCAGGAGCUAUCAATT against Helb -0.879, CCUGCUUACGUGAAAUACUTT against Rap1gap2 -0.248, GGUUCUUAUCUCUAUUCAGTT against Olfr1270 0.432, GCAGCAGAACUUUUUUGCCTT against Hif1an 0.587, GCAAGAAACACGGAGGUGATT against Olfr1231 -1.06, GGCCUUCGUUGAAUUCUUGTT against C1qbp -0.0708, GCAAGCUAGAGAAAAUCAGTT against Serpinb3b -0.231, GCAUAUCCUAAACACUGUUTT against Pqlc3 -0.966, GCAAUAGGCUUUUAUUGUCTT against 5930422O12Rik -1.64, GAUGAAAUCUAAAGAUGGGTT against Olfr178 0.411, GGUGUCAUAGACAUGAAAATT against Armc8 -0.977, GGAUUUAGAUUUUUCCCUCTT against Alox12e 0.15, GGAAGAACAGGAUUGUGAATT against Gpr156 -0.0843, GGAAGAACUAGAAGAAAAUTT against Uso1 -0.228, GCAACAUUGCAUCUAUUUATT against Dbx1 0.866, GGAUGUGGUUCUUGAACAUTT against Chid1 0.259, GGGUGUGUUGUAUCUCCCUTT against Cdh26 -0.964, GGUCAACCCAGCCUAUUCATT against Tmem129 -0.744, GGACUUGAACCCAGUUUGCTT against Arhgef4 0.78, GGUAUUGACCAAGAAGAAATT against Taf12 -1.85, GGCACAGAAAAUCUCUGAUTT against Psmd3 -0.465, GCAAAGAACGGAAUGCACCTT against Dtd1 -1.03, GGAAGUUCAUCAUGAUAUCTT against Cxadr -0.108, GGAAUAUGUGCAGAAGCUGTT against Fgd2 -1.2, GGUGACUCUGAUUCUCAUATT against Slc22a13 -0.176, GCUCAUGUAUGUGAAUUUGTT against Ptx3 -1.25
